Measurements reported in PubChem BioAssay AID504791 (Drosophila RNAi Screening Center, 2011).

Test: 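Genes whose knock-down strengthens or weakens small-RNA reporter silencing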 (primary screen)
Cells: Drosophila S2-derived reporter cells
Reagents: long dsRNA against Drosophila genes, about 150-250 ng dsRNA per well (siRNA assay); about 80-120 ng (miRNA assay)
Duration: about 5 days (siRNA assay); about 4 days (miRNA assay)
Challenge: copper sulfate induction of reporters: 25 µM (siRNA assay); 200 mM stated (miRNA assay), 1-2 days before reading
Measurement: 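Dual luciferase assay: Renilla to firefly signal ratio in each well, scaled to the mean ratio of its plate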
Hit rule: 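a well was a first-pass pick when its plate-scaled ratio rose above 1.5 (siRNA assay) or 1.6 (miRNA assay), or dropped below 0.6; a gene counted only if two separate dsRNAs agreed on retest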
The deposit covers about 23,000 reagents; below is an unselected part of those with a known target gene and a result. Of all reagents, 199 (0.86%) got an active call. 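Plate-scaled ratios behind the calls are not deposited; printed light signals are raw; many rows marked increased or decreased are still called inactive.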 Entries without a mark were called inactive. Names joined by + are all predicted targets of the reagent. Further read-outs or replicates are left out here. The record does not give: the direction of the score.

| gene | amplicon | stable siRNA reporter change | miRNA reporter change | stable assay Renilla, run 1 (luminescence) |
| --- | --- | --- | --- | --- |
| Ppn (Papilin) | DRSC15328 | – | – | 6806 |
| Vha68-2 (Vacuolar H[+] ATPase 68 kDa subunit 2) | DRSC02721 | – | – | 7432 |
| CheA84a (Chemosensory protein A 84a) | DRSC12669 | – | – | 5087 |
| gdl-ORF39 + gdl | DRSC11350 | – | – | 11110 |
| AP-2mu (Adaptor Protein complex 2, mu subunit) | DRSC14090 | reporter ratio raised past the hit cutoff | – | 33576 |
| Cnx14D (Calnexin 14D) | DRSC20214 | – | – | 5764 |
| wbl (windbeutel) | DRSC07718 | – | – | 5871 |
| Ran | DRSC20364 | reporter ratio raised past the hit cutoff (active) | – | 4891 |
| CG17190 | DRSC15184 | – | – | 7114 |
| crn (crooked neck) | DRSC18184 | – | – | 6587 |
| crn (crooked neck) | DRSC18185 | – | – | 6947 |
| crn (crooked neck) | DRSC18755 | – | – | 6470 |
| Aldh7A1 (Aldehyde dehydrogenase 7 family member A1) | DRSC11083 | – | – | 8019 |
| CG11839 | DRSC14398 | – | – | 6959 |
| Gar1 (Gar1 ribonucleoprotein) | DRSC04441 | – | – | 5891 |

5 neighbouring reagents from above:
| gene | amplicon | stable siRNA reporter change | miRNA reporter change | stable assay Renilla, run 1 (luminescence) |
| --- | --- | --- | --- | --- |
| Ran | DRSC20364 | reporter ratio raised past the hit cutoff (active) | – | 4891 |
| CG17190 | DRSC15184 | – | – | 7114 |
| crn (crooked neck) | DRSC18184 | – | – | 6587 |
| crn (crooked neck) | DRSC18185 | – | – | 6947 |
| crn (crooked neck) | DRSC18755 | – | – | 6470 |

Continued.
| gene | amplicon | stable siRNA reporter change | miRNA reporter change | stable assay Renilla, run 1 (luminescence) |
| --- | --- | --- | --- | --- |
| CG8180 | DRSC07092 | – | – | 11419 |
| CG8180 | DRSC07093 | – | – | 4296 |
| CG13337 | DRSC06371 | – | – | 6555 |
| CG2217 + CG42740 | DRSC14141 | – | – | 7283 |
| mthl14 (methuselah-like 14) | DRSC07865 | – | – | 5599 |
| RpL40 (Ribosomal protein L40) | DRSC00782 | – | – | 7374 |
| CG14377 | DRSC14837 | – | – | 8201 |
| Prosalpha3T (Proteasome alpha3 subunit, Testis-specific) | DRSC15226 | – | – | 7155 |
| trol (terribly reduced optic lobes) | DRSC17714 | – | – | 8075 |
| trol (terribly reduced optic lobes) | DRSC17718 | – | – | 6627 |
| trol (terribly reduced optic lobes) | DRSC18613 | – | – | 6019 |
| trol (terribly reduced optic lobes) | DRSC18814 | – | – | 5915 |
| lectin-24A | DRSC00604 | – | – | 7642 |
| CG3600 (retired record) | DRSC18599 | – | – | 5031 |
| eIF3a (eukaryotic translation initiation factor 3 subunit a) | DRSC12339 | – | – | 5067 |
| eIF3a (eukaryotic translation initiation factor 3 subunit a) | DRSC28481 | – | reporter ratio lowered past the hit cutoff | – |
| CG30082 | DRSC22945 | – | – | 5932 |
| f-cup (flyers-cup) | DRSC14139 | – | – | 6470 |
| CG9628 | DRSC11082 | – | – | 8415 |
